# Results from article PMC11383180.
# Amino acid sequences for entries named in this document (tags omitted). A change or cut given only in a name is not applied to a line headed by its entry. Chains listed by the source or under a name are the forms on record and can include a tag or linker.
# UniProt Q96LD4: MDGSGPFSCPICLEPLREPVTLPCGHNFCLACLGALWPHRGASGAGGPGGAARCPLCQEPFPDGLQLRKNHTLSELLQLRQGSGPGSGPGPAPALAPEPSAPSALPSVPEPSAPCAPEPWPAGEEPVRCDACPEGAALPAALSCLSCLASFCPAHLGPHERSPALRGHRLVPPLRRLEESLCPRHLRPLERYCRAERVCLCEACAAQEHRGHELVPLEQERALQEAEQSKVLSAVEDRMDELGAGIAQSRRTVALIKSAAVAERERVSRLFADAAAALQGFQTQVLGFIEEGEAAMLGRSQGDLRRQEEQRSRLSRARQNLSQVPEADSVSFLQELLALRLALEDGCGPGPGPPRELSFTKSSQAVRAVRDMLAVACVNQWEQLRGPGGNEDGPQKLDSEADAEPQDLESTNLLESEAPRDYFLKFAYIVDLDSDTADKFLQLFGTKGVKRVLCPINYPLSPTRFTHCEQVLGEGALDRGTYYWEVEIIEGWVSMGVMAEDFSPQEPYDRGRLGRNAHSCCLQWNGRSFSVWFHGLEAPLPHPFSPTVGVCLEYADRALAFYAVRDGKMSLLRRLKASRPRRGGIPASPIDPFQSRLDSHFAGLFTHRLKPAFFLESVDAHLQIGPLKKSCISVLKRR
# in vitro-translated mutant ADAM17 (p.D647N) (P78536-1, form named): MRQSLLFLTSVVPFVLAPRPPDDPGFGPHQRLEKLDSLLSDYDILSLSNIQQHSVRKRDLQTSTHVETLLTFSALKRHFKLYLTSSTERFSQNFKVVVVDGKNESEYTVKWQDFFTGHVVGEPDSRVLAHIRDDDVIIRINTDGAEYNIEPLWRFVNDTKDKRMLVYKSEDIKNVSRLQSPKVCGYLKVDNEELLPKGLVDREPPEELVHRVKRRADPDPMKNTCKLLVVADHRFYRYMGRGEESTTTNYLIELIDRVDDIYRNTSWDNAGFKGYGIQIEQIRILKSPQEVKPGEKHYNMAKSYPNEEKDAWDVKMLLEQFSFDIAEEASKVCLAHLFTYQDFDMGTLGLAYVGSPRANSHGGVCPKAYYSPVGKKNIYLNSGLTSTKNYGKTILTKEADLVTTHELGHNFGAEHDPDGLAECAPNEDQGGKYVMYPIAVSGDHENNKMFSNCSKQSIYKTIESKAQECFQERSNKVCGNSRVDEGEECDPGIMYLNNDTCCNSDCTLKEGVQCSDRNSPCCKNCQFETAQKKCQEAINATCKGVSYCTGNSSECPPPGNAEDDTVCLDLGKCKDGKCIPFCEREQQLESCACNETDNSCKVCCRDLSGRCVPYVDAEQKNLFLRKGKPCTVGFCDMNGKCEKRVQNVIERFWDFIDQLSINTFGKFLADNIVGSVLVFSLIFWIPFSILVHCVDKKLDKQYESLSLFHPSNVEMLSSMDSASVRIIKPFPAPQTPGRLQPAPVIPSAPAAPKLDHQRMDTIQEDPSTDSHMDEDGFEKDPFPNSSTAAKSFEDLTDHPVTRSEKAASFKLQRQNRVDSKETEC
# Results are given in words; binding and its absence hold for the method and conditions named. Binding seen in cells or lysates may run through a third protein. Some results given as binding are weak or reduced against the parent protein; the word gives no strength.
# Target: His-tagged TRIM47 (UniProt Q96LD4)
# Test: pull-down; His-tagged TRIM47 purified on Ni-NTA beads, incubated with in vitro-translated wild-type or mutant ADAM17 overnight at 4°C; washed with ice-cold buffer, eluted from the beads, immunoblot; only the target purified
row,Substance,binding
1,in vitro-translated mutant ADAM17 (p.D647N) (from UniProt P78536-1 1-824),binds
2,in vitro-translated wild-type ADAM17 (from UniProt P78536-1 1-824),binds
